Assay results reported in article doi:10.1101/2022.07.21.500829.
No constants are given. Whether binding was seen depends on the method and setting. In cells and extracts the contact can be indirect. Some entries that bind do so weakly or less than the wild type.

By UniProt entry, the sequences of proteins in these tests, tags left out. Residues count along the entry.
UniProt P41439, residues 23-245: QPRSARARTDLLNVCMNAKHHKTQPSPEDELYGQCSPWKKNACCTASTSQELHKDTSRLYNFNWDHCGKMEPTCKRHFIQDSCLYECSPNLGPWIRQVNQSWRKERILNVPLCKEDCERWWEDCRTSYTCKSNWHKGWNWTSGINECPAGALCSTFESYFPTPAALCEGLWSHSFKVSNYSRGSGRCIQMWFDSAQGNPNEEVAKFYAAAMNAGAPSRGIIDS
UniProt Q92743, residues 23-480: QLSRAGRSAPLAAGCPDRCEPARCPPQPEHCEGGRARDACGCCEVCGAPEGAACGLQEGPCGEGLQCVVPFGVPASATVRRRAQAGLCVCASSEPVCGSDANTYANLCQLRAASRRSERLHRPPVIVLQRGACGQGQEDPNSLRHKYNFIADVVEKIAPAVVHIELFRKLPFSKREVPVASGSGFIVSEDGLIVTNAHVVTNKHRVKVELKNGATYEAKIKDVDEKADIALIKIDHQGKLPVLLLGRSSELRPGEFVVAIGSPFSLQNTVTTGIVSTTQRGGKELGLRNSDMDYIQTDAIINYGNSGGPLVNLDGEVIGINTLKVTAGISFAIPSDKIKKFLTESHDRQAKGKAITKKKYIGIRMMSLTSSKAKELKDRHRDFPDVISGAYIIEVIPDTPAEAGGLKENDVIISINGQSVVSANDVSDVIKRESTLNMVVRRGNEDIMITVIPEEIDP

Target: folate receptor gamma (FOLR3) with FLAG tag (human) (UniProt P41439)
Experiment: pull-down

serine protease HTRA1 (from UniProt Q92743 23-480) (enzyme)
binding: binds
